Measured values taken from paper PMC7658717.
These are yes or no findings as the source states them, for the method shown. In cells and extracts the contact can be indirect. Some binding calls cover weakened binding; strength is not graded here. Sequences can lack the tags named with a protein.

The chains behind the UniProt entries cited, without tags or fusion partners.
UniProt P47811: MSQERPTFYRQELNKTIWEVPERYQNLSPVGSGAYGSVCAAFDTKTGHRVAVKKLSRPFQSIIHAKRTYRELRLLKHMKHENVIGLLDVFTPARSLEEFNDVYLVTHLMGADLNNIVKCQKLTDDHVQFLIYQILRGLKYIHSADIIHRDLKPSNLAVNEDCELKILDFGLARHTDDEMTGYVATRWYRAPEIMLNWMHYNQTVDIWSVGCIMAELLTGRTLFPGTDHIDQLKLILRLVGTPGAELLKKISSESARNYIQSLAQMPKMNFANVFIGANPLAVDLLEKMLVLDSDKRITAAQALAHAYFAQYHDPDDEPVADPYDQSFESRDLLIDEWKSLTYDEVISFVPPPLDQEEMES

Target: T1, megakaryocytic leukemia 1, Flag-tagged (pcDNA3.1-C3Flag-MKL1) (UniProt Q8K4J6)
T1 sequence: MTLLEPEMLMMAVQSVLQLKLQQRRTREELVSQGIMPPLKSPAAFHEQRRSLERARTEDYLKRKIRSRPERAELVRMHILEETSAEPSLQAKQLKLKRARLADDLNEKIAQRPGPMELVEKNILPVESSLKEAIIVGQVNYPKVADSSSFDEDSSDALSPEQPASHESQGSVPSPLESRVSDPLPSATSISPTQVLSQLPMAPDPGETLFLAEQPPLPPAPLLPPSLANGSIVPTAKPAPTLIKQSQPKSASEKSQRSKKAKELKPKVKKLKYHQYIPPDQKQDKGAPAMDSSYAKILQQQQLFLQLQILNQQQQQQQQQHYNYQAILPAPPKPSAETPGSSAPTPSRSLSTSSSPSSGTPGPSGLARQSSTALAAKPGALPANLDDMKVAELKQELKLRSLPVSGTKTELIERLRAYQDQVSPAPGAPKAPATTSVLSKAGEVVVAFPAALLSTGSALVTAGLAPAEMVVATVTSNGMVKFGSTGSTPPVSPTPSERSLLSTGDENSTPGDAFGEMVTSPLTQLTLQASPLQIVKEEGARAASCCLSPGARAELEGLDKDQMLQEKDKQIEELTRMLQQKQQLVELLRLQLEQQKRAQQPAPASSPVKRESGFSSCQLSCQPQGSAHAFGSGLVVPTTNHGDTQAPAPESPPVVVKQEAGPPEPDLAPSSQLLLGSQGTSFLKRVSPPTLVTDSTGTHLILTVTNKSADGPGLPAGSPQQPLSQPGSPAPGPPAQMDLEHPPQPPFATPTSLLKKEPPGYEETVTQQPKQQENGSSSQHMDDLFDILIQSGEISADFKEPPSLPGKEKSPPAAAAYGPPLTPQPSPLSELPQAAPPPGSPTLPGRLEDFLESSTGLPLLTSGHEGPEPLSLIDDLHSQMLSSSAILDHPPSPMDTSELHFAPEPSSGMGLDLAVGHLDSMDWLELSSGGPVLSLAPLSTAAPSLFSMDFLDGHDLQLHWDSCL
Assay: co-IP; 293T cells co-transfected with His-p38α and/or Flag-MKL1 plasmids for 48 h; whole cell lysates; Flag-bead pulldown (Immunoprecipitation Kit, Proteintech); western blot

binding: binds
Substance: p38α mitogen-activated protein kinase, His-tagged (pcDNA3.1-V5/hisB-p38α) (from UniProt P47811 1-360) (enzyme)
